End groups of sequences in plain letters are not given here.
Test: general procedure: Fmoc solid-phase peptide synthesis
Settings: whole synthesis

Sequence	isolated yield [%]
DGSVVVNKVSELPAGH	31
GLNVNTLSYGDLAAD	23
SELPAGHGLNVNLTS	34
